In all, about 300,000 compounds went through this assay and about 5,400 (1.8%) were called active. This list was built around the results that the source calls inconclusive (neither active nor inactive); the mix of calls is not that of the screen. Calls come from the whole dose curve; tested in HEK293 cells. A potency beside an inconclusive call is a rough fit, not a confirmed value.
Experiment: qHTS for inhibitors of binding or entry into cells for Marburg Virus
Conditions: Marburg virus pseudotyped entry inhibition, cell reporter; activity change, negative = inhibition: at 37.8 µM (top of the series) unless noted
% is set by controls: 0 for no effect and ±100 for the full control effect; potency is the fitted concentration of half-maximal effect.

Compound | activity change, negative = inhibition | Potency
Cc1[nH]c2c(Br)cccc2c1[C@H]1[C@@H](CC#N)C1(C)C | inactive: -19.2% [at 46.1 µM] | –
COc1ccc(C(=O)N[C@H](C(=O)OCn2nnc3ccccc3c2=O)C(C)C)cc1 | inactive: -12.6% | –
CCCC(=O)Nc1ccc2c(c1)nc(CN1CCN(C(=O)OCC)CC1)n2C(C)C | – | inconclusive: 5.01 µM [inhibitor, single point]
COc1ccc(C(CNC(=O)c2ccc(C)c(S(=O)(=O)Nc3ccccc3OC)c2)N2CCCC2)cc1 (stereo not given) | – | inconclusive: 12.6 µM [inhibitor, partial curve, poor fit]
Cc1ccc(S(=O)(=O)N(CC(=O)N/N=C/c2cccc3c2OCCO3)c2ccccc2F)cc1 | – | inconclusive: 20 µM [inhibitor, partial curve, poor fit]
Cc1cc(C)nc(NS(=O)(=O)c2ccc(NC(=O)c3cccs3)cc2)n1 | inactive: 2.63% [at 46.1 µM] | –
Cc1ccc(C(=O)N/N=C/c2ccc([N+](=O)[O-])s2)cc1 | – | active: 11.2 µM
COc1cc(/C=C(\C#N)c2ccccn2)ccc1OCc1ccccc1Cl | – | inconclusive: 3.55 µM [activator, single point]
CCOc1ccc(CNC(=O)c2ccc(Sc3ccc(Cl)cc3)c(NC(C)=O)c2)cc1 | – | inconclusive: 35.5 µM [inhibitor, partial curve, poor fit]
Cc1nc2sc(C(=O)N(C)Cc3ccccc3)c(NC(=O)c3ccccc3)c2c(C)c1Cl | – | inconclusive: 2 µM [inhibitor, single point]
O=C1CCCc2c1cc(-c1ccccc1)n2-c1ccc(O)cc1 | inactive: -19.8% | –
Cc1ccc(-n2ncc3c(NCCCN4CCCC4=O)ncnc32)c(C)c1 | – | inactive
COc1ccc(CNC(=O)C(c2ccc(C)o2)N(Cc2cccs2)C(=O)Cc2cccs2)cc1 (stereo not given) | – | inconclusive: 31.6 µM [inhibitor, single point]
N#CC1=C(N)Oc2c(c(=O)oc3ccccc23)C1c1ccccc1OC(=O)c1cccs1 (stereo not given) | – | inconclusive: 1.26 µM [activator, single point]
Nc1nnc(SCC(=O)c2ccc3ccccc3c2)s1 | – | inconclusive: 3.55 µM [activator, single point]
CC(=O)Nc1ccc(C2=NN(CC#N)C(=O)SC2)cc1 | inactive: -11.5% | –
O=C(CN1CCCc2ccccc21)Nc1cccc(S(=O)(=O)N2CCOCC2)c1 | inactive: -8.96% | –
Cc1cccc(C)c1OC(=O)Cc1ccccc1 | – | inactive
CC(=O)Nc1ccc(NC(=O)COc2cccc3c2OC(C)(C)C3)cc1 | – | inconclusive: 17.8 µM [activator, single point]
CCN1CCN(C(=O)C2(NC(=O)Nc3ccccc3Cl)CCCCC2)CC1 | inactive: -4.38% | –

Molecules listed so far containing a Cl atom, in the order listed:
Compound | activity change, negative = inhibition | Potency
COc1cc(/C=C(\C#N)c2ccccn2)ccc1OCc1ccccc1Cl | – | inconclusive: 3.55 µM [activator, single point]
CCOc1ccc(CNC(=O)c2ccc(Sc3ccc(Cl)cc3)c(NC(C)=O)c2)cc1 | – | inconclusive: 35.5 µM [inhibitor, partial curve, poor fit]
Cc1nc2sc(C(=O)N(C)Cc3ccccc3)c(NC(=O)c3ccccc3)c2c(C)c1Cl | – | inconclusive: 2 µM [inhibitor, single point]
CCN1CCN(C(=O)C2(NC(=O)Nc3ccccc3Cl)CCCCC2)CC1 | inactive: -4.38% | –
